Paper PMC10384408, “Anticancer Tungstenocenes with a Diverse Set of (O,O–), (O,S–) and (O,N–) Chelates—A Detailed Biological Study Using an Improved Evaluation via 3D Spheroid Models” (Pharmaceutics, 2023)

System: HCT116 spheroids
Assay: W distribution by LA-ICP-TOF-MS
Assay type: cell-based, human
Conditions: 10 µM, 48 and 72 h

F[P-](F)(F)(F)(F)F.[O-]c1c(-c2ccc(Cl)cc2)oc2ccccc2c1=S.[W+4].c1cc[cH-]c1.c1cc[cH-]c1 [Compound 4, Bis(η^5-cyclopentadienyl)[2-(4-chlorophenyl)-3-(oxo-κO)-4(H)-chromen-4-thionato-κS]tungsten(IV) hexafluorophosphate]
W distribution in spheroids: tungsten enrichment predominantly in the proliferating zone
